Results as given in paper PMC8829429.
No constants are given. Whether binding was seen depends on the method and setting. Binding can be weak; no strength is given. For some of these results: Where a sequence is shown, tags or fusion partners need not be part of it. For some of these results: In cells and extracts the contact can be indirect. Each block holds one substance with its values, some of them ahead of it.

By UniProt entry, the sequences of proteins in these tests, tags left out. Where a name states a change or a piece, a line headed by the entry shows the natural chain unless it says otherwise.
UniProt Q7EUC6: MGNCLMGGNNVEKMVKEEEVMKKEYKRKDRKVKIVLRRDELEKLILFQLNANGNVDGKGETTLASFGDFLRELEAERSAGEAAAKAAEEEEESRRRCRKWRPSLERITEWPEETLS

Key:
[1] = molecular target: T1, ACO1-GST (glutathione S-transferase-fused ACO1) (Arabidopsis) (UniProt Q42560); assay: pull-down; purified ACO-GST and TZ1-MBP with Glutathione Sepharose or Amylose Resin overnight at 4°C; washes in 25 mM HEPES pH 7.5, 150 mM NaCl, 1 mM DTT; blots with anti-GST or anti-MBP; both purified
T1 sequence: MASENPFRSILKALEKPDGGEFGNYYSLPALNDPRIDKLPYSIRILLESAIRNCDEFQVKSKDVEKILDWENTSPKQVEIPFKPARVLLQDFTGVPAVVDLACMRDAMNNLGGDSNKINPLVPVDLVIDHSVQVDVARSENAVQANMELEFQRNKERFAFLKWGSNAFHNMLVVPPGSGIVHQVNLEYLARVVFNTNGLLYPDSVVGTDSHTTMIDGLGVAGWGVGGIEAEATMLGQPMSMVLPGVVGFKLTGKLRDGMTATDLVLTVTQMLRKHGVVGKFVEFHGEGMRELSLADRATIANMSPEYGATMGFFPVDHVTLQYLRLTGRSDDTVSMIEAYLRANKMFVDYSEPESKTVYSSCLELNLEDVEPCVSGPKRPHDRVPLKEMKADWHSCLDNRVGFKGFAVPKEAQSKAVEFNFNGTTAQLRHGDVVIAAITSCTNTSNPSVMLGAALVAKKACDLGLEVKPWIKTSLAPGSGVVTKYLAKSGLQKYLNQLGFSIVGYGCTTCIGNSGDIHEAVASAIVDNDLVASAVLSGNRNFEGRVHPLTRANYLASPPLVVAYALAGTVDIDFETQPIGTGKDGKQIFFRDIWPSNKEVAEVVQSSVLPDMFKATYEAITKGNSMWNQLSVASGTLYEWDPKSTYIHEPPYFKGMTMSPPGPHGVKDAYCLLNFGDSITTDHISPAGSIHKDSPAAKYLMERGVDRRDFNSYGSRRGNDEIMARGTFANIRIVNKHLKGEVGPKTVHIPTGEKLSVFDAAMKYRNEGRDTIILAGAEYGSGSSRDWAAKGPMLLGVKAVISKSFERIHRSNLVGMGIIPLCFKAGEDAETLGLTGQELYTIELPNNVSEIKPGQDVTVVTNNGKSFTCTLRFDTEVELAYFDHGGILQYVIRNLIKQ

ACO1-MYC (Arabidopsis) = molecular target: T2, ACO1-MYC (Arabidopsis) (UniProt Q42560); assay: co-IP; cell lysate (10 mM Tris-HCl pH 7.5, 150 mM NaCl, 0.5 mM EDTA, 0.5% NP-40) on MYC-Trap magnetic agarose beads, 4°C, 2 h; blots with anti-MYC and anti-GFP
T2 sequence: T1 sequence

[2] = molecular target: T3, ACO2 of the CoIP assay (Arabidopsis) (UniProt Q94A28); assay: as above
T3 sequence: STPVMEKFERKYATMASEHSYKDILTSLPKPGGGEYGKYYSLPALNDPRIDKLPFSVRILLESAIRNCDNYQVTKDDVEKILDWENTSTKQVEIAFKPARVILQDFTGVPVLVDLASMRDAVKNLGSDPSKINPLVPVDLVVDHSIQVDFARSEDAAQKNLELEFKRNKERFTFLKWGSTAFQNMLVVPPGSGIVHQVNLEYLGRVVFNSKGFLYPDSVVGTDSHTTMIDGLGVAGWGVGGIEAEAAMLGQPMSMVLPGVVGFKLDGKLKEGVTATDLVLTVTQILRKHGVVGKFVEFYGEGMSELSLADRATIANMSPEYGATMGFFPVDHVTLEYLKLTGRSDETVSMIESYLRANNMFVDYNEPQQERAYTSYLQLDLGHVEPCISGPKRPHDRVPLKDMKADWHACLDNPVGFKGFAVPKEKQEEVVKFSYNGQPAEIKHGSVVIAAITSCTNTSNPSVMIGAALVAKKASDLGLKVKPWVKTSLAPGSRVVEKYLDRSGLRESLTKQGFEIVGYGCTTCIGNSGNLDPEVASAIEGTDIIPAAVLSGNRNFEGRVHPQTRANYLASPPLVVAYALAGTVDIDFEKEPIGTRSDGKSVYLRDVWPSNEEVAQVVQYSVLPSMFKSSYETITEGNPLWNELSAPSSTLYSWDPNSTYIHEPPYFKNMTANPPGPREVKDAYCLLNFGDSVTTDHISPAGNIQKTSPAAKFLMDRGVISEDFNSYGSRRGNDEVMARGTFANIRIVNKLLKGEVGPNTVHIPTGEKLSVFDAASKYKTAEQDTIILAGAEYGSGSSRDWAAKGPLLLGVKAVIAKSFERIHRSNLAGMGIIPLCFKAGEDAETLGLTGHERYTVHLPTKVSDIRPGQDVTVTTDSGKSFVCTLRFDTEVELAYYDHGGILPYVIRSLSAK

[3] = molecular target: T4, ACO3 of the CoIP assay (Arabidopsis) (UniProt Q9SIB9); assay: as above
T4 sequence: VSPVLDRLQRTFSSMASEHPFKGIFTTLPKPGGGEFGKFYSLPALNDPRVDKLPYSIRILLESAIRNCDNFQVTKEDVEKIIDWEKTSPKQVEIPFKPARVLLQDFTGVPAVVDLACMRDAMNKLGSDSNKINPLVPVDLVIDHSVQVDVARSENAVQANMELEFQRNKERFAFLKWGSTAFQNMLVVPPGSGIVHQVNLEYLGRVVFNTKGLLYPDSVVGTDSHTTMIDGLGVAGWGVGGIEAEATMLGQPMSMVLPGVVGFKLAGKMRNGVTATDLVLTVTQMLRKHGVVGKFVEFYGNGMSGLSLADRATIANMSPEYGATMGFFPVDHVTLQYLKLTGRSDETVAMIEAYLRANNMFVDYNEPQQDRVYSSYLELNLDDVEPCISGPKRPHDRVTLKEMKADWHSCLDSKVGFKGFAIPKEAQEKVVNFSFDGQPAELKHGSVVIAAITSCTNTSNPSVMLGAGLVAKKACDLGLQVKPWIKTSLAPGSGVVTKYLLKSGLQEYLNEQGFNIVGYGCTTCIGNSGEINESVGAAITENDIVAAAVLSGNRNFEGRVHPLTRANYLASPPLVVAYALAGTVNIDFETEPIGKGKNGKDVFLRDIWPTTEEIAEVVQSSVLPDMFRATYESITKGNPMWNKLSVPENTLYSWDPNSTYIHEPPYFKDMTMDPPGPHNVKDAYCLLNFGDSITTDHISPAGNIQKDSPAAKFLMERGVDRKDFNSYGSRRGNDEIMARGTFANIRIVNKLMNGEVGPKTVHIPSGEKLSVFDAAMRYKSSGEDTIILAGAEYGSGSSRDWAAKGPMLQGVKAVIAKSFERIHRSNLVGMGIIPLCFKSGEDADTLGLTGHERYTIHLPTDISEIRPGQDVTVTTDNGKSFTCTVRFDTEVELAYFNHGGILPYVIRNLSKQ

[4] = molecular target: T5, ACO1-cLUC (ACO1 634-899 aa) (Arabidopsis) (UniProt Q42560); assay: split reporter; luciferase complementation imaging: TZ1-nLUC and ACO (C-terminal)-cLUC co-expressed in N. benthamiana leaves for 48 h; 0.2 mM luciferin, CCD imaging
T5 sequence: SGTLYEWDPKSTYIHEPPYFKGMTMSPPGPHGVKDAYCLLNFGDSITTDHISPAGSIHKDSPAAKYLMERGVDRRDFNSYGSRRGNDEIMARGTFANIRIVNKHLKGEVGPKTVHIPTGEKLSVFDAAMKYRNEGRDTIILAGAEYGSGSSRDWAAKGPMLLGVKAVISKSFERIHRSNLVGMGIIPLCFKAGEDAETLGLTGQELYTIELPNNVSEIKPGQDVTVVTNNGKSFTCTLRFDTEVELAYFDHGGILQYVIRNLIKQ

[5] = molecular target: Transition zone1 (TZ1) fused to the GAL4 DNA-binding domain (TZ1-BD) (Arabidopsis) (UniProt Q7EUC6); assay: two-hybrid; library screen: TZ1-BD (pGBKT7) against a pre-transformed Arabidopsis root cDNA library; GAL4 Two-Hybrid System 3 (Clontech); SD-Trp-Leu-His for 2 days, then SD-Trp-Leu-His-Ade
[6] = molecular target: Transition zone1 (TZ1) fused to the GAL4 DNA-binding domain (TZ1-BD) (Arabidopsis) (UniProt Q7EUC6); assay: two-hybrid; directed test: TZ1 (pGBKT7) as bait, C-terminal of ACO1 (pGADT7) as prey; Empty-AD as negative control

binding (ACO1-MYC (Arabidopsis)): binds
binding [2]: binds
binding [3]: binds
Substance: TZ1-YFP (from UniProt Q7EUC6)

binding [4]: binds
Substance: TZ1-nLUC (Arabidopsis)

binding [6]: binds
Substance: C-terminal of ACO1 in pGADT7 (from UniProt Q42560) (domain or fragment)

More lines, now with the values behind:

Substance: TZ1-MBP (maltose-binding protein-fused TZ1) (from UniProt Q7EUC6)
binding [1]: binds

Substance: aconitase1 (ACO1) (C-terminal) fragment from the Arabidopsis root cDNA library (from UniProt Q42560) (domain or fragment)
binding [5]: binds
